Measurements reported in paper PMC4996652.
No constants are given. Whether binding was seen depends on the method and setting. Binding seen in cells or lysates may run through a third protein. Some entries that bind do so weakly or less than the wild type.

By UniProt entry, the sequences of proteins in these tests, tags left out.
UniProt Q9JIF0: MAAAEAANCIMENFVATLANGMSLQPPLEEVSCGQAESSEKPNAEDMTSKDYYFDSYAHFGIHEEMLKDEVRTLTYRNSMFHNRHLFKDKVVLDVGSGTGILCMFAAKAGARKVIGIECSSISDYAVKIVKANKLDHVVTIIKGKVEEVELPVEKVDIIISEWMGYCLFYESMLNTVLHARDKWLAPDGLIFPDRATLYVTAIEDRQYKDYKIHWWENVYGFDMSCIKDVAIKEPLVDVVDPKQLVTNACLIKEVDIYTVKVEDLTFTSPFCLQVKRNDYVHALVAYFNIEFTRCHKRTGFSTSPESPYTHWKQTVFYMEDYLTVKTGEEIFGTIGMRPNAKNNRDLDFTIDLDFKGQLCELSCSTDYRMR
UniProt Q9Z351: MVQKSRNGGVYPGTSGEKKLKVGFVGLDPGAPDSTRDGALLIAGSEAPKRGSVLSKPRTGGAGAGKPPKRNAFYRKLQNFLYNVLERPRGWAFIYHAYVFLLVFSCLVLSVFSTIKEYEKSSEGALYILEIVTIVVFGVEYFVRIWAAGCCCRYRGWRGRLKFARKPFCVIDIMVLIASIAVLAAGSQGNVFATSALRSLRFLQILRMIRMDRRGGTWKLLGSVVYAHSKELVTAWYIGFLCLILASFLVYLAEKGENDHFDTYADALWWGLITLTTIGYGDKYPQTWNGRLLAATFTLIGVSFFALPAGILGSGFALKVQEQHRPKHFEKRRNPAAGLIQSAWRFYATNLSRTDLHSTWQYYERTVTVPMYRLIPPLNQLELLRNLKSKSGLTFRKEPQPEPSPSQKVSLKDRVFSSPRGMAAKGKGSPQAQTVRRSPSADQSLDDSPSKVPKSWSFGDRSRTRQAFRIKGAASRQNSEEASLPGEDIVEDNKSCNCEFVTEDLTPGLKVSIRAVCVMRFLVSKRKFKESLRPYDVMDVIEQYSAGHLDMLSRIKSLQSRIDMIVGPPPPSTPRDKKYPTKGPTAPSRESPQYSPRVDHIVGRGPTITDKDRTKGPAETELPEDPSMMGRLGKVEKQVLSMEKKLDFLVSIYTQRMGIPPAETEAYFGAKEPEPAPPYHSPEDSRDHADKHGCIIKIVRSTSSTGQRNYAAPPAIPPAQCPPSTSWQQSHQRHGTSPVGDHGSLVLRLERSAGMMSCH

Target: Prmt1 (endogenous, mouse hippocampus) (mouse (endogenous in hippocampus)) (UniProt Q9JIF0)
Experiment: co-IP; lysates from mouse hippocampus immunoprecipitated with anti-Prmt1 antibody, immunoblotted with anti-KCNQ2 or anti-Prmt1 antibody

binding: binds
Substance: KCNQ2 (endogenous, mouse hippocampus) (from UniProt Q9Z351 1-759)
